Measurements published in patent publication US20170035847A1, “COMPOSITIONS AND METHODS FOR TREATING INFLAMMATION-ASSOCIATED DISORDERS OF THE GASTROINTESTINAL TRACT” (TherapyX, Inc., priority 2015, published 2017).
Some results were stated once for a whole list of compounds, not compound by compound.

Test system: DSS-induced colitis in C57Black6 mice
Assay: Dextran sodium sulphate-induced colitis
Type: in vivo, mouse
Details: Day 7; untreated and control mice nearly 12; p<0.001
Description: Animals: Mice 6-8-weeks old (C57Black6 mice [males: n=6; females: n=6; 12 per group]) were purchased from Harlan Nossan, San Pietro al Natisone, Udine, Italy, and housed in a vivarium under pathogen-free conditions at the Department of Biomedical Sciences in the School of Medicine at the University of Catania [Catania, Italy]. The mice were kept under standard laboratory conditions with free access to food and water. They were allowed to adapt for 1 week before starting the study. The care and use of laboratory animals was in accordance with a University of Catania IACUC-approved animal use protocol.
Colitis was induced with 3% dextran sodium sulphate [50 kDa; Sigma-Aldrich] in drinking water for 4 days. […]
To more broadly test the ability of oral TGFβ/ATRA-loaded microspheres to ameliorate IBD, a second model, the DSS-induced colitis model, was employed. […] Mice were monitored daily for overall disease score and weight loss. At the end of 7 days, animals were sacrificed, sera taken and colons harvested, weighed, and measured on Day 7 [24 h after final treatment]. […] SAA levels, colon weight-to-length ratios, and histology scores determined. […] Mice were sacrificed 7 days after first treatment and levels of SAA determined [FIG. 10C]. […] The colons of sacrificed mice were also analyzed for colon weight-to-length ratio [FIG. 10D]. […]

## O=C(O)c1cc(/N=N/c2ccc(S(=O)(=O)Nc3ccccn3)cc2)ccc1O [sulphasalazine]
  cumulative histological score: less than 10
